Assay results published in article PMC2949623.

Target: T1, KSRP-eCFP (UniProt Q92945)
T1 sequence: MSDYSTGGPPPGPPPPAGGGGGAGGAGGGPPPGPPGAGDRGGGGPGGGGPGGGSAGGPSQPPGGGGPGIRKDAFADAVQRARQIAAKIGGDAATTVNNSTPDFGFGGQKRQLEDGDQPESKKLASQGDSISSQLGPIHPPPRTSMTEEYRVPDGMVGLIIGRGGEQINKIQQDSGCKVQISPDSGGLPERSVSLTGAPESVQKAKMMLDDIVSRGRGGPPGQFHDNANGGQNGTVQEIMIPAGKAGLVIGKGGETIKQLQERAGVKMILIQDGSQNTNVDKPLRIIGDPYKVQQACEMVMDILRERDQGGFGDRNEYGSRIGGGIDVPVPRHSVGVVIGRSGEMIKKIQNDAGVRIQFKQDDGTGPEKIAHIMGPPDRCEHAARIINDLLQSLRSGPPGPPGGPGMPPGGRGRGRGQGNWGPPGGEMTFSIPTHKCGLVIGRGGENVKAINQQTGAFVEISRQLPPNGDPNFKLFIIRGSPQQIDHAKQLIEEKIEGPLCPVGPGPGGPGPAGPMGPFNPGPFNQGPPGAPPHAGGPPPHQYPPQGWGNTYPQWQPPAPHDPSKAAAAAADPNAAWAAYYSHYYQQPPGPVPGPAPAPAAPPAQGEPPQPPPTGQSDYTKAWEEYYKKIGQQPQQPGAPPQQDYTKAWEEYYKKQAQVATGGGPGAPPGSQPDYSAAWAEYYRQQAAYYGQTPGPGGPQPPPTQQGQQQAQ
Assay: FRET or BRET; traditional FRET between eCFP and eYFP tagged proteins transiently transfected into DDT1-MF2 cells; FRETc images of live or fixed cells, room temperature; control cells, 0.5 mM sodium arsenite 30 min, or 75 nM anisomycin 24 h

binding: binds
Substance: TIA-1-eYFP

These are yes or no findings as the source states them, for the method shown. In cells and extracts the contact can be indirect. Binding calls can cover weak binding; strength is not graded here. Where a sequence is shown, tags or fusion partners need not be part of it.
